These are yes or no findings as the source states them, for the method shown. In cells and extracts the contact can be indirect. Some binding calls cover weakened binding; strength is not graded here. For some of these results: Tags and fused reporters may be left off the sequences shown. One block for each substance: values may come before it.
Assays:
[1] = biological target: GST fused to amino acids 263-538 of human importin α5 (NPI-1) (human) (UniProt P52294); test: GST pull-down of IVT 35S-EDD
[2] = biological target: GST-PR(CDE) fusion protein (human PR B aa 456-933) (human) (UniProt P06401); test: figure title (GST-PR pull-downs)
[3] = biological target: T1, GST-CIB fusion protein (full-length CIB in pGEX2T) (human) (UniProt Q99828); test: GST-CIB pull-down of IVT 35S-EDD
T1 sequence: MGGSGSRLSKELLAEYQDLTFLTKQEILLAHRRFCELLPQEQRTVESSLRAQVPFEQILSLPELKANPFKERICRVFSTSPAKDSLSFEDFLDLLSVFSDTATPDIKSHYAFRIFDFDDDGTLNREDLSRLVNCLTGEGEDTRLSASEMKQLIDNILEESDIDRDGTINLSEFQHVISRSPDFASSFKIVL

By UniProt entry, the sequences of proteins in these tests, tags left out. Where a name states a change or a piece, a line headed by the entry shows the natural chain unless it says otherwise.
UniProt P52294: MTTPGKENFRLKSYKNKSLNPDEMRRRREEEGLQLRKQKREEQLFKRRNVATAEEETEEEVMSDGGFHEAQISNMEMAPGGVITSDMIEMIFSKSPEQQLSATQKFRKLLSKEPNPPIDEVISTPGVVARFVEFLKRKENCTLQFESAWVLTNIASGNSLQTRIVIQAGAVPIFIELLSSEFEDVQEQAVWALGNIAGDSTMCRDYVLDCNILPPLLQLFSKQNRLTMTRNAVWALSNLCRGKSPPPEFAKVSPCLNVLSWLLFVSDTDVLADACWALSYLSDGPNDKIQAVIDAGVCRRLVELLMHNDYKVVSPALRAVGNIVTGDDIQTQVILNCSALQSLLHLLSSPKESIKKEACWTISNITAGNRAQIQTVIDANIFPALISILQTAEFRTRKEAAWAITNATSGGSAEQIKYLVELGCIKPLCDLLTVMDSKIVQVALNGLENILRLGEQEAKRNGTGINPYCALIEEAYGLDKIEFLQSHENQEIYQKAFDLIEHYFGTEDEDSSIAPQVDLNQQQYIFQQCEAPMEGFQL
UniProt P06401: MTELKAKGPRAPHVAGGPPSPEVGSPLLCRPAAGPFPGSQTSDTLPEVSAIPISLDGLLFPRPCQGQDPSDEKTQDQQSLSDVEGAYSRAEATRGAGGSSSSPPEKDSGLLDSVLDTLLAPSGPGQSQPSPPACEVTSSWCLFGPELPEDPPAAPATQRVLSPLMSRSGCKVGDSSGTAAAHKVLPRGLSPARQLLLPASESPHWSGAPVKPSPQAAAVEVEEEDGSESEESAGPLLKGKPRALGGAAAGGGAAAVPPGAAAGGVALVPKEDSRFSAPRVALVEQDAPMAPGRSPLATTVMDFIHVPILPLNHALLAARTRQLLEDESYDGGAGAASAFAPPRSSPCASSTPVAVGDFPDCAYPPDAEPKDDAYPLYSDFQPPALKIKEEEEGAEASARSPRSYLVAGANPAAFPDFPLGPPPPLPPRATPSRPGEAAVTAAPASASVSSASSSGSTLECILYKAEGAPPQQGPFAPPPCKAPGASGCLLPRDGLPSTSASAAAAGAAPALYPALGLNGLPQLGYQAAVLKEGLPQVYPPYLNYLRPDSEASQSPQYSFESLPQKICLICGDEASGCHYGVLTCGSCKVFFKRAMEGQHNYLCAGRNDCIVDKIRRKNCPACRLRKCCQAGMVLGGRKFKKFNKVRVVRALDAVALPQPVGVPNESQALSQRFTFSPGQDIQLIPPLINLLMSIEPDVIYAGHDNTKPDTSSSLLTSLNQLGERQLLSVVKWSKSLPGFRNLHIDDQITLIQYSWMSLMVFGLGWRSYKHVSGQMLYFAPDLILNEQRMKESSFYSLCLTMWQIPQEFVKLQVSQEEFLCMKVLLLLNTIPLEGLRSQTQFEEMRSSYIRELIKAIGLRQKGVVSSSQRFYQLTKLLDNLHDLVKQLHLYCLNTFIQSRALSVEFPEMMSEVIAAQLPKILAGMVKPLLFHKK
UniProt O96017: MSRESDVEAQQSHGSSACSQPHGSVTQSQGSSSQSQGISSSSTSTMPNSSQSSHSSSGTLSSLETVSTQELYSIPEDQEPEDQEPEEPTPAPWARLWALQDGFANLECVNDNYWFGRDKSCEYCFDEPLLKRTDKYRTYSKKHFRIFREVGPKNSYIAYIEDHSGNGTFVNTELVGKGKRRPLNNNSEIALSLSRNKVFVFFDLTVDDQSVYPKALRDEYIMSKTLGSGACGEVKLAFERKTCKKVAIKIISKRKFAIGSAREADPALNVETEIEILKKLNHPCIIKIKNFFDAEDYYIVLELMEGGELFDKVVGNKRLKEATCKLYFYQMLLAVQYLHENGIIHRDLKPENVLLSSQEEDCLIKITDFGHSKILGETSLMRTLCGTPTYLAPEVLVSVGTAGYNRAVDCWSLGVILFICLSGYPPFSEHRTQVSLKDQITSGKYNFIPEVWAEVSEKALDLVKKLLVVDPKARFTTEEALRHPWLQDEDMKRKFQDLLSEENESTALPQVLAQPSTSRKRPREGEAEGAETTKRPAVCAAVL
UniProt Q15788: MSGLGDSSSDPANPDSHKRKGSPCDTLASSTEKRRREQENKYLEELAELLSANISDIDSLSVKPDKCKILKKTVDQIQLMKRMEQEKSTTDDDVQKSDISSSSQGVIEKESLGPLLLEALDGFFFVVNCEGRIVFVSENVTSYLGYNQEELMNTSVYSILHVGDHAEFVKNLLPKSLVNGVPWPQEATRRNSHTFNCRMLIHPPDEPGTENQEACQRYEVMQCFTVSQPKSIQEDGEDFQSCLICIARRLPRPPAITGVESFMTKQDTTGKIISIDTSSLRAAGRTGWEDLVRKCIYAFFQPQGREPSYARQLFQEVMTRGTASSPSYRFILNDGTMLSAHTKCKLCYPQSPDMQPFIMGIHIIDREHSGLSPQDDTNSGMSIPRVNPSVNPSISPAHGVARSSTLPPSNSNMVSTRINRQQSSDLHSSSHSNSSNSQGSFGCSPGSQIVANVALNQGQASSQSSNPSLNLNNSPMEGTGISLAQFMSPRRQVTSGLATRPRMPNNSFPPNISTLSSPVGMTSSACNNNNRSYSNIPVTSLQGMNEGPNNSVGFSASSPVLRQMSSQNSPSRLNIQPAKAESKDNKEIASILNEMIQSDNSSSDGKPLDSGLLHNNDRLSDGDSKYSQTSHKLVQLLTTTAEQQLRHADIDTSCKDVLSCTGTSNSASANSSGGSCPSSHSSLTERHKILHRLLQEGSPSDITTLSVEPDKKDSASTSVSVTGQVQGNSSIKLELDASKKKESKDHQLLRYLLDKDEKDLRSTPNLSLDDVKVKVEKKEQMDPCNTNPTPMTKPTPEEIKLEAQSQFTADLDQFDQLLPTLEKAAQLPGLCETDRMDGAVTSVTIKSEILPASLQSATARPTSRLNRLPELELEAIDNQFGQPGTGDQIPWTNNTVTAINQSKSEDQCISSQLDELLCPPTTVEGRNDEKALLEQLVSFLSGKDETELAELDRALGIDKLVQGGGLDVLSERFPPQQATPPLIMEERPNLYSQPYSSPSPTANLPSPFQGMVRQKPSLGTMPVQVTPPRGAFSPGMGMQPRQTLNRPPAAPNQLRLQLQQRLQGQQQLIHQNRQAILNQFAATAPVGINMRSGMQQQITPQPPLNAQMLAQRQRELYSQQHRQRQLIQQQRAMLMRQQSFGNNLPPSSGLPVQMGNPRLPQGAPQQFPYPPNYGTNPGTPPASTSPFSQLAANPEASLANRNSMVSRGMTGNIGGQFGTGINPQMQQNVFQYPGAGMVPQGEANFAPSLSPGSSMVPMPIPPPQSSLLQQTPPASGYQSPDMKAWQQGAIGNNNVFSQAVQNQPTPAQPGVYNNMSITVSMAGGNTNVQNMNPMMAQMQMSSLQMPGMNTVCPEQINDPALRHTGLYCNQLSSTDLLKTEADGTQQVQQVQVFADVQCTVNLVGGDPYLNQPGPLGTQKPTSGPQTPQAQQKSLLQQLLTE

[4] = biological target: GST-PR(CDE) fusion protein (human PR B aa 456-933) (human) (UniProt P06401); test: GST-PR(CDE) pull-down, EDD western blot
[5] = biological target: GST fused to amino acids 263-538 of human importin α5 (NPI-1) (human) (UniProt P52294); test: GST pull-down from cell lysates, EDD western blot
[6] = biological target: GST-PR(CDE) fusion protein (human PR B aa 456-933) (human) (UniProt P06401); test: GST-PR pull-down from T-47D extracts, EDD western blot
[7] = biological target: GSTchk2-N (GST fused to chk2 aa 1-225) (human) (UniProt O96017); test: GSTchk2-N pull-down from MCF-7 cells, EDD western blot
[8] = biological target: T1, GST-CIB fusion protein (full-length CIB in pGEX2T) (human); test: GST-CIB pull-down from MCF-7 nuclear extracts (discussion)
[9] = biological target: GSTchk2-N (GST fused to chk2 aa 1-225) (human) (UniProt O96017); test: GSTchk2-N pull-down from HeLa nuclear extract, MS sequencing
[10] = biological target: GST fused to amino acids 263-538 of human importin α5 (NPI-1) (human) (UniProt P52294); test: GST-importin α5 pull-down from cell extracts, EDD western blot
[11] = biological target: T1, GST-CIB fusion protein (full-length CIB in pGEX2T) (human); test: GST-CIB pull-down from MCF-7 nuclear extracts, EDD western blot
[12] = biological target: GSTchk2-N (GST fused to chk2 aa 1-225) (human) (UniProt O96017); test: GSTchk2-N pull-down from MCF-7 nuclear extracts, EDD western blot
[13] = biological target: GSTchk2-N (GST fused to chk2 aa 1-225) (human) (UniProt O96017); test: GSTCHK2-N pull-down from MCF7 whole cell extracts, EDD western blot
[14] = biological target: GST fused to amino acids 263-538 of human importin α5 (NPI-1) (human) (UniProt P52294); test: figure title (yeast two-hybrid, GST pull-down, co-immunoprecipitation)
[15] = biological target: GSTchk2-N (GST fused to chk2 aa 1-225) (human) (UniProt O96017); test: GSTchk2-N pull-down from MCF-7 nuclear extracts with or without phleomycin
[16] = biological target: T1, GST-CIB fusion protein (full-length CIB in pGEX2T) (human); test: GST-CIB pull-down from lysates of MCF-7 cells treated with DNA damaging agents
[17] = biological target: GSTchk2-N (GST fused to chk2 aa 1-225) (human) (UniProt O96017); test: GSTCHK2-N pull-down of IVT 35S-EDDF6
[18] = biological target: GSTchk2-N (GST fused to chk2 aa 1-225) (human) (UniProt O96017); test: GSTchk2-N pull-down of IVT 35S-EDD deletion mutants
[19] = biological target: GST-PR(CDE) fusion protein (human PR B aa 456-933) (human) (UniProt P06401); test: GST-PR(CDE) pull-down of IVT 35S-SRC-1

binding [1]: binds | binding [2]: binds | binding [3]: binds | binding [4]: binds | binding [5]: binds | binding [6]: binds | binding [7]: binds | binding [8]: binds | binding [9]: binds | binding [10]: binds | binding [11]: binds | binding [12]: binds | binding [13]: binds | binding [14]: binds | binding [15]: binds | binding [16]: binds
Substance: EDD protein, full length (aa 1-2799) (from UniProt O95071 1-2799)

binding [17]: binds | binding [18]: binds
Substance: EDDF6 (EDD aa 889-2526; EDDF5 without the Hect domain) (from UniProt O95071 889-2526)

binding [19]: binds
Substance: SRC-1 (in vitro translated, from pCR3.1-SRC1A) (from UniProt Q15788 1-1441)

From patent US20060147922A1, “Novel diagnostic and therapeutic methods and reagents therefor” (priority 2002, published 2006)
